Assay: in vitro
Settings: human, hela cells, % viability

Row | SMILES | viability at 28.5 h, 10 µM [%]
1 | NC(=O)c1cc(-c2ccccc2)sc1N [CBK016888] | 91
2 | FC(F)(F)c1cc(-c2ccco2)nc2ncnn12 [CBK027878] | 103
3 | Cc1ccc(SCc2nc(-c3cccnc3)no2)cc1 [CBK267679] | 89.1
4 | Cc1cc(C)n(C(=O)C(C)n2nc([N+](=O)[O-])c(Br)c2C)n1 (stereo not shown) [CBK269121] | 95.7

Reference: publication PMC12040169 (PLOS Biology, 2025)
